In paper PMC7819943, “Rice protein-binding microarrays: a tool to detect cis-acting elements near promoter regions in rice”:
The other results are listed elsewhere or left out.

By UniProt entry, the sequences of proteins in these tests, tags left out.
UniProt Q0JBA9, entry or part of it: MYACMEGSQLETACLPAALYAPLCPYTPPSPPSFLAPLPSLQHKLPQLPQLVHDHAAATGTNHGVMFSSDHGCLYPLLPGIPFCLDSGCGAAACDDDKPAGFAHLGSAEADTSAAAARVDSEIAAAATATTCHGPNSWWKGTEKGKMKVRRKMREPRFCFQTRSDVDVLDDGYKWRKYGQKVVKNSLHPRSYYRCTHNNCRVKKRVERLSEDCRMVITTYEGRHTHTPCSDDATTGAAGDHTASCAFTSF

Target: OsWRKY34 (Oryza sativa, UniProt Q0JBA9 1-250)
Assay: protein-binding microarray (RPBM); PBS, 2% BSA, 51.3 ng/ul salmon testes DNA, 50 uM zinc acetate, 200 nM TF, 25 C, 1 h; high values mean tight binding
Conditions: protein: recombinant; tags: N-terminal polyhistidine and DsRed monomer fusion (pET32a); label: CyDye5-dUTP incorporated in the synthesized complementary strand; 3' TTTTT single-stranded linker to array surface; dsDNA, one strand shown
Procedure, shortened: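 Ni–NTA purification followed expression in E. coli BL21-CodonPlus of transcription factors fused N-terminally to a polyhistidine tag and DsRed. At 200 nM in PBS with 2% BSA, salmon testes DNA and 50 µM zinc acetate, the protein was incubated for 1 h at 25 °C with a custom Agilent array that had been primer-extended with Cy5-dUTP and blocked with 2% BSA. After washing, the array was read on an Axon 4000B scanner. The binding signal is per-feature fluorescence intensity in arbitrary units.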

Row | Sequence | binding signal
1 | GAGTTTGGTTCTTCCTATTCAGATACATTGTTTCCTGCATCGGAGTCACCTAGTGCAG | 8260 fluorescence intensity (a.u.)
2 | GGGGTTACATTCTTCCTTGAAATTGCATTCTAAATACTATCGGAGTCACCTAGTGCAG | 11800 fluorescence intensity (a.u.)
3 | GGCAACCCCAACCTCGCGCGGCCCACCGCGTTTCATTTCCCGGAGTCACCTAGTGCAG | 8440 fluorescence intensity (a.u.)
4 | GATATTTGGGTTGGTTTACTTCAATTACAGTCAAATGGATCGGAGTCACCTAGTGCAG | 8670 fluorescence intensity (a.u.)
5 | GCAACTGTGTTTTCAATTCTGCAAATGCTATTCTCTGTTACGGAGTCACCTAGTGCAG | 11800 fluorescence intensity (a.u.)
6 | TCACTGACGCCGTCCTCGTTGTAGCCGATCCACGCACCAGCGGAGTCACCTAGTGCAG | 8840 fluorescence intensity (a.u.)
7 | ATTGATTGACCGAGCGCACTACTCTTTATCTTTTCGATTGCGGAGTCACCTAGTGCAG | 9920 fluorescence intensity (a.u.)
8 | TCCATCCTCGTCTCCACCCACCCACTCTTTATTCCCACCTCGGAGTCACCTAGTGCAG | 9240 fluorescence intensity (a.u.)
9 | CACCATACCACATTCACACCCATCACTGCGGAAACCGAACCGGAGTCACCTAGTGCAG | 8480 fluorescence intensity (a.u.)
10 | TTTGCTCTACCCGTGCCCGACCCGACCCATTGCCATACCTCGGAGTCACCTAGTGCAG | 9130 fluorescence intensity (a.u.)
11 | TCTCTCCACCGCATCTCTCCCTCAACCTCTCTCTTAGATCCGGAGTCACCTAGTGCAG | 10300 fluorescence intensity (a.u.)
12 | TTAAAAAAGTCAACGGCGAACATTTAGAGTAGGAGGGAGTCGGAGTCACCTAGTGCAG | 10100 fluorescence intensity (a.u.)
13 | CTCGCTGATGTCATTTCTTGCTTGACCATTTCTGACAGATCGGAGTCACCTAGTGCAG | 8950 fluorescence intensity (a.u.)
14 | TTCTTTATCCCATCTCGCGCGCTTTCCTTTCCTTTCCTTCCGGAGTCACCTAGTGCAG | 11600 fluorescence intensity (a.u.)
15 | ACTGACATGTGGGTCTCATGAGTTTTATTATTTTTTCTAGCGGAGTCACCTAGTGCAG | 8690 fluorescence intensity (a.u.)
16 | GCTTGCTCCAGGTGACCCAACTTTTCCATTTCCATGCATTCGGAGTCACCTAGTGCAG | 11300 fluorescence intensity (a.u.)
17 | GCACCAATTAATATTGGAGCTATCGTTCTTCTTCCCATCACGGAGTCACCTAGTGCAG | 8340 fluorescence intensity (a.u.)
18 | ATATGTTACAGTAAATTTTGCCCGTGCTCTTTGTAGATTTCGGAGTCACCTAGTGCAG | 8900 fluorescence intensity (a.u.)
19 | CATACTTCATGCGATCGCGAGCTCGCGTAATCACGTGTCCCGGAGTCACCTAGTGCAG | 8100 fluorescence intensity (a.u.)
20 | TCGGTGTGTTTGCTGGTCTGTAATGTACTAGGCTACCTAACGGAGTCACCTAGTGCAG | 8500 fluorescence intensity (a.u.)
21 | AGGGAATATTTTTTTTTAGCGTTTGACCACTCGTCTTATACGGAGTCACCTAGTGCAG | 11100 fluorescence intensity (a.u.)

Row | Sequence | binding signal
22 | TCAGTAGTGTGGATTCTCTCGTGTAACAATGCACTCTTTTCGGAGTCACCTAGTGCAG | 9550 fluorescence intensity (a.u.)
23 | GTTTTAGGCTTTTTGATTACAATTTATTTTCCAATCTTTACGGAGTCACCTAGTGCAG | 8140 fluorescence intensity (a.u.)
24 | AGGCCACCGGCACCACCCGGTCACCCGTCCGCATCGTCGCCGGAGTCACCTAGTGCAG | 8480 fluorescence intensity (a.u.)
25 | GCTGTTTTTTGACGTATAGTTGTCCTCTGTCGTGAGTTATCGGAGTCACCTAGTGCAG | 12900 fluorescence intensity (a.u.)
26 | GGAGGAGGGGCGGCGGAGCGGGTGGTGGGGAGGCGACATGCGGAGTCACCTAGTGCAG | 17900 fluorescence intensity (a.u.)
27 | GTATGTGTACTCTTGCTGTGATGTGTGGTCGATCGAGTCACGGAGTCACCTAGTGCAG | 8600 fluorescence intensity (a.u.)
28 | GCAGTTGCATGGGTTTTTTTTTGTCCAAAAATAGATTTTTCGGAGTCACCTAGTGCAG | 8510 fluorescence intensity (a.u.)
29 | CGTGTTGTGGCCTTTTTACTTTCTCACTTGTACAAATTTTCGGAGTCACCTAGTGCAG | 9890 fluorescence intensity (a.u.)
30 | GATTTAGTGTAAGTGGAATCTGTATTCCCTTTGATATTTTCGGAGTCACCTAGTGCAG | 8350 fluorescence intensity (a.u.)
31 | CTCATGTATTCTTTTTGCCGGGTCTTTTTTCATGTGTATTCGGAGTCACCTAGTGCAG | 12600 fluorescence intensity (a.u.)
32 | CGAGCTGCTTAAACCTAACTCCACCTCTAGTTCATTTTGTCGGAGTCACCTAGTGCAG | 8380 fluorescence intensity (a.u.)
33 | CTCCCTCCGTTTCAAAATGTTTGACACCGTTGACTTTTTACGGAGTCACCTAGTGCAG | 28300 fluorescence intensity (a.u.)
34 | ACTTTTCCGTCACATCGTTCTAATTTCTTCAAACTTCTAACGGAGTCACCTAGTGCAG | 9730 fluorescence intensity (a.u.)
35 | GTGTCTTATTGGAAAATTTTGCCACTCTCGTAATCTTACACGGAGTCACCTAGTGCAG | 11800 fluorescence intensity (a.u.)
36 | TTGTCCCTTGTAATATGTAACATCCTCATCAATGTGTGAACGGAGTCACCTAGTGCAG | 9420 fluorescence intensity (a.u.)
37 | TCATCTACAGTGCCTGAGAAATCATCATACCATATATTTTCGGAGTCACCTAGTGCAG | 8240 fluorescence intensity (a.u.)
38 | CCACCACGCGAACGACGACTCGATCAACATCACCAGCCAGCGGAGTCACCTAGTGCAG | 8770 fluorescence intensity (a.u.)
39 | ACTGTACGCTGCCTGCTGTACTGCTCGCTCTCCTCAGTCCCGGAGTCACCTAGTGCAG | 8670 fluorescence intensity (a.u.)
40 | GGCCCCACATGTCAGATTGTCCACGTCATCACTTTGTCTTCGGAGTCACCTAGTGCAG | 12200 fluorescence intensity (a.u.)
41 | TCTGTTAAGCAGGTTTGTTCTCTTCGTCAATTTATTCTTCCGGAGTCACCTAGTGCAG | 9190 fluorescence intensity (a.u.)
42 | GATTTGCCGGCTTGCCATGGCTGCACGCACCAAAGGCCTCCGGAGTCACCTAGTGCAG | 8720 fluorescence intensity (a.u.)

Two successive entries already listed, for reference:
Row | Sequence | binding signal
35 | GTGTCTTATTGGAAAATTTTGCCACTCTCGTAATCTTACACGGAGTCACCTAGTGCAG | 11800 fluorescence intensity (a.u.)
36 | TTGTCCCTTGTAATATGTAACATCCTCATCAATGTGTGAACGGAGTCACCTAGTGCAG | 9420 fluorescence intensity (a.u.)
